# From the supplement of paper PMC10849652
# By UniProt entry, the sequences of proteins in these tests, tags left out. Where a name states a change or a piece, a line headed by the entry shows the natural chain unless it says otherwise.
# UniProt Q9UQB8: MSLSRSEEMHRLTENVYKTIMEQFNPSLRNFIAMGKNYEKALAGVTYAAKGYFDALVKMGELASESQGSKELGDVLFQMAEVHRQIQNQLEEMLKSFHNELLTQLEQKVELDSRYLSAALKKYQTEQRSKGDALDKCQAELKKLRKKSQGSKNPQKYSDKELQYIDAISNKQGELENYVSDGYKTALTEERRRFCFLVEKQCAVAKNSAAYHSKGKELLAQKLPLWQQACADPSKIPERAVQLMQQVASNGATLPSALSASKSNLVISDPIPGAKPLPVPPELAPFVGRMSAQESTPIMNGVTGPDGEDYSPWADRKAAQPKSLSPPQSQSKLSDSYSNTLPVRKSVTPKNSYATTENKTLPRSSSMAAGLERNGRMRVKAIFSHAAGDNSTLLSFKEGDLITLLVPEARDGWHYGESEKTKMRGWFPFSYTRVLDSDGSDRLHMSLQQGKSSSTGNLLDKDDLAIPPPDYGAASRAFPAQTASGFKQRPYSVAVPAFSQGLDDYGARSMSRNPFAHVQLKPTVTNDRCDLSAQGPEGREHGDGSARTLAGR
# UniProt Q99728: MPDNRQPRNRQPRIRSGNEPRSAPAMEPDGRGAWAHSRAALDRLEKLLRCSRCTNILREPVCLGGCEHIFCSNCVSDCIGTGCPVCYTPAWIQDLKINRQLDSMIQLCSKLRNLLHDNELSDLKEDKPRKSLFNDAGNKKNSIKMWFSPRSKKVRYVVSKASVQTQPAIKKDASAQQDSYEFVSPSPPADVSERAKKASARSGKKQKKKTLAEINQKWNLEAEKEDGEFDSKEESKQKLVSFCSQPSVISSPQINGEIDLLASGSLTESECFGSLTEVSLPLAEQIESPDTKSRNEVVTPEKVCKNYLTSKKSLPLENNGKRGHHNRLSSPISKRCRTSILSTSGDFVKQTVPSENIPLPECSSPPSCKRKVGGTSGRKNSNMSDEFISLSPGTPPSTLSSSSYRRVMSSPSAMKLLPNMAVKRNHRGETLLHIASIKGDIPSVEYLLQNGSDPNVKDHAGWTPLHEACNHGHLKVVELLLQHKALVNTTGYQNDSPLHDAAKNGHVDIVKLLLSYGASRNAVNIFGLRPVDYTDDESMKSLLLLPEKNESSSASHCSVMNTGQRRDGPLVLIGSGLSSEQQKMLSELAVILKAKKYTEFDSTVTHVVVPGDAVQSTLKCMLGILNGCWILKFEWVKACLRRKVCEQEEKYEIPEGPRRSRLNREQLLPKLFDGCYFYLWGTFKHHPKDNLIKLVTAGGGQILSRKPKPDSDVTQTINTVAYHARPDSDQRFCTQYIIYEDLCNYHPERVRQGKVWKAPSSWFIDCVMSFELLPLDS
# UniProt Q92843: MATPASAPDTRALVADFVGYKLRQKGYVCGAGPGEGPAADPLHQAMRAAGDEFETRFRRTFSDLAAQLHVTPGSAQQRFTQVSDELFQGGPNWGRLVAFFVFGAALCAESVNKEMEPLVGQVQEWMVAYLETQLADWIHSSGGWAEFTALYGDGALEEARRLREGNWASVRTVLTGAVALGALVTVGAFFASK
# UniProt P43251: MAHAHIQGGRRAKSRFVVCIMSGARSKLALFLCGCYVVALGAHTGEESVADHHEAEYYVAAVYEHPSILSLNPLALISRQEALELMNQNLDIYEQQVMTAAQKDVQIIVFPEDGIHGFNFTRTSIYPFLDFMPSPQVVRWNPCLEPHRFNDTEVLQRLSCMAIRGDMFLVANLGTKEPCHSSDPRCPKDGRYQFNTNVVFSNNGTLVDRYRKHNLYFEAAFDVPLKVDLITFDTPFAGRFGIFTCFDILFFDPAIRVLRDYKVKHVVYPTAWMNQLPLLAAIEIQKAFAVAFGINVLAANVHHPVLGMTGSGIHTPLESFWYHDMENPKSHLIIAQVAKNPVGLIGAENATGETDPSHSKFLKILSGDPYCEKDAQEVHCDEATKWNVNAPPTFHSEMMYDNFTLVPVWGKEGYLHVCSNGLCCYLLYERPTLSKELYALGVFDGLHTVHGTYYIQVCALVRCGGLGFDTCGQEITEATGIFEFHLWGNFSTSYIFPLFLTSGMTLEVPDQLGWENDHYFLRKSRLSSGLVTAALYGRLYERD
# UniProt O95999: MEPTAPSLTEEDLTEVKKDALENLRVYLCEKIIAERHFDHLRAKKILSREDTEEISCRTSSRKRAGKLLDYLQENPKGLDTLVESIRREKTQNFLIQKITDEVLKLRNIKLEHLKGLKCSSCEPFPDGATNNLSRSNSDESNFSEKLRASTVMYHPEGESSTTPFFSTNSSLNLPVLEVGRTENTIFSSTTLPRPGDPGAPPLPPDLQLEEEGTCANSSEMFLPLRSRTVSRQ
# UniProt P12694: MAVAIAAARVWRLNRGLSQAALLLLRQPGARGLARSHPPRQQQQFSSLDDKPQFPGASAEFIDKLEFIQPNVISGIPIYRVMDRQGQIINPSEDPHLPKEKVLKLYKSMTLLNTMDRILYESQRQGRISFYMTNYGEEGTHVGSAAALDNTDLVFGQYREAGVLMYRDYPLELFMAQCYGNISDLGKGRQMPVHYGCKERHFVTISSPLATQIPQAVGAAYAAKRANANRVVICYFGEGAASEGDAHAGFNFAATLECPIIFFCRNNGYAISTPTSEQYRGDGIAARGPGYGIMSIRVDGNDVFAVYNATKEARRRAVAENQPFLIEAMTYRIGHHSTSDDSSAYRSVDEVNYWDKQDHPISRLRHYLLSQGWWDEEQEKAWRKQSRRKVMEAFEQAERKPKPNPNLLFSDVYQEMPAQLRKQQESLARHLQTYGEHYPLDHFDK
# UniProt Q12983, whole entry, looked up: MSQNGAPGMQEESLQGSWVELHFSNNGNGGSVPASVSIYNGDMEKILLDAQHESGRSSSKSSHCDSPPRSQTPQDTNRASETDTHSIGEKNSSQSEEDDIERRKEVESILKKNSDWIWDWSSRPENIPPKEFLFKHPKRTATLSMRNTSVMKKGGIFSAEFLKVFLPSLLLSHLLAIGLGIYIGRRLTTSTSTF
# UniProt Q9NYM9: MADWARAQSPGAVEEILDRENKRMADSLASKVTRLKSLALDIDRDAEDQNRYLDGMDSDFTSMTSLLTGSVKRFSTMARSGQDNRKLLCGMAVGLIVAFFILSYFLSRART
# UniProt Q9UIG0: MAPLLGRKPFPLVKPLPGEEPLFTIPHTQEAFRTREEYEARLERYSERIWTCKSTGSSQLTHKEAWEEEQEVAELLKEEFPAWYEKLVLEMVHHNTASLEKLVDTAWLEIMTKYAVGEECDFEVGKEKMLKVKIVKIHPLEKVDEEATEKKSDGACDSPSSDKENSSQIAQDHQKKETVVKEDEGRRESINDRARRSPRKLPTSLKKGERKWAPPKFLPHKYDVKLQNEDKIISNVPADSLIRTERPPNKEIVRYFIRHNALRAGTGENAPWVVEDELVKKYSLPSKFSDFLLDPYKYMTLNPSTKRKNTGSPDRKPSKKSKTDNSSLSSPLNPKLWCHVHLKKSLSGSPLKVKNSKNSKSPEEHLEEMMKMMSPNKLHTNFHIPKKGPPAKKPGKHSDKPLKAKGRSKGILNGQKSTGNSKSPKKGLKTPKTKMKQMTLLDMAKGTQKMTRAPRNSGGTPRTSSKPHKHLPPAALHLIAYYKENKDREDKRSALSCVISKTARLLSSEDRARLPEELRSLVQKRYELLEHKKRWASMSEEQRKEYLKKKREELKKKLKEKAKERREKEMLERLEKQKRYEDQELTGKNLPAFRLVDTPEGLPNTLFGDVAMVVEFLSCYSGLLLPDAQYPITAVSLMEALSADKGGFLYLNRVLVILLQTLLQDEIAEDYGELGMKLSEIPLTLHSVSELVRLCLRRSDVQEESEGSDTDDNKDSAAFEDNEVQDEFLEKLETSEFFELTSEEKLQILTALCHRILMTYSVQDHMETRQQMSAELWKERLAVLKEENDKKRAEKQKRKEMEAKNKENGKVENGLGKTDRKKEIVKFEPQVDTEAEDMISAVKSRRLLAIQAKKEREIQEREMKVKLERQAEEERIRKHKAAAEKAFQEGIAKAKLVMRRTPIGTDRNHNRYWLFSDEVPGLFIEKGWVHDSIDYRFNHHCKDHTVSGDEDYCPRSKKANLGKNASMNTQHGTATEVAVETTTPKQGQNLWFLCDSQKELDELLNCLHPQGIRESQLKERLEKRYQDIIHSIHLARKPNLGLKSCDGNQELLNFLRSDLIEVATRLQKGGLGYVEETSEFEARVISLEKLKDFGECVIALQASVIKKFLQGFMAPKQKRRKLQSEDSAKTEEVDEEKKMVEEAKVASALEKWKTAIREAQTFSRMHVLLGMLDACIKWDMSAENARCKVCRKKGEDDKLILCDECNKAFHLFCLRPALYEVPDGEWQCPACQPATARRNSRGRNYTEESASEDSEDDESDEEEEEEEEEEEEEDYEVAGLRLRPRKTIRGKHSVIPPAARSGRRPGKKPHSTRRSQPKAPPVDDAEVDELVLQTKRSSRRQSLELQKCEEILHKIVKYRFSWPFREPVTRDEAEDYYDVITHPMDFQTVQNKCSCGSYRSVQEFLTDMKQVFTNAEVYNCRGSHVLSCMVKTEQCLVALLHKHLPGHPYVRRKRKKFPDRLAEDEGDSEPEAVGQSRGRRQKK
# UniProt P07738: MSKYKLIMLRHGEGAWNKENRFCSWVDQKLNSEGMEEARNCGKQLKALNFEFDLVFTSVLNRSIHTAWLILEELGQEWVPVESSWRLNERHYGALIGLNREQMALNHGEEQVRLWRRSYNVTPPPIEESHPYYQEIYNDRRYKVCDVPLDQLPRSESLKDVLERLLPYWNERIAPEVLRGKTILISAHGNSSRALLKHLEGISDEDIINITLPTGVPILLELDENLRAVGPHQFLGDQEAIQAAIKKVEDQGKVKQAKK
# UniProt P78537: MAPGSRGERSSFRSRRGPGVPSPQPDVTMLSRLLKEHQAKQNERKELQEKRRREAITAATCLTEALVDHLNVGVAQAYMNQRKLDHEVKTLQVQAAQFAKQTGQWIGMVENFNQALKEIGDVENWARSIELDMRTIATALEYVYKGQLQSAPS
# UniProt Q9BXH1: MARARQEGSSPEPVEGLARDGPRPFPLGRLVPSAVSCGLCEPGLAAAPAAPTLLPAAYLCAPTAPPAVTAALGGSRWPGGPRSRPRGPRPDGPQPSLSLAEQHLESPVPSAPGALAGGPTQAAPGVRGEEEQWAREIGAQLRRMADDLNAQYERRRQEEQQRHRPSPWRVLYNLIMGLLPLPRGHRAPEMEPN
# UniProt P55957: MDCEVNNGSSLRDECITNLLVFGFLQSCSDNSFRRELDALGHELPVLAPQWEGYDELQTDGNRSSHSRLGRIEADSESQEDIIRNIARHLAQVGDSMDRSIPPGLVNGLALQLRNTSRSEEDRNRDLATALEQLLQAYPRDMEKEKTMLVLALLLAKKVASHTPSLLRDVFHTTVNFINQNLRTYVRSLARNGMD
# This is one part of the list.
# Assays:
# Test in all cases: log2 fold change, soluble protein after heating vs DMSO (PISA); higher = thermal stabilisation; K562 lysate, 10 uM; active = over 0.2 and 3.5 SD of the protein, either way, in both replicates (recomputed)
# lapatinib = compound: CS(=O)(=O)CCNCc1ccc(-c2ccc3ncnc(Nc4ccc(OCc5cccc(F)c5)c(Cl)c4)c3c2)o1 [lapatinib]
# Method in brief: (§1)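 Log-two fold change in thermal stability relative to solvent controls is reported from duplicates. For each sample, crude K562 extract from dounce-homogenised pellets in PBS pH 7.4 with 1 mM MgCl2, at 1 mg/mL protein, was treated with 10 μM compound for 30 min. Aliquots heated for 3 min across 48°C-58°C were pooled, brought to 0.5% NP-40 at 4°C and cleared at 21,000xg for 90 min. The supernatant was quantified by TMTpro 16plex LC-MS/MS with channel sums equalised.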
# pictilisib = compound: CS(=O)(=O)N1CCN(Cc2cc3nc(-c4cccc5[nH]ncc45)nc(N4CCOCC4)c3s2)CC1 [pictilisib]
# Method in brief: as §1
# crizotinib = compound: C[C@@H](Oc1cc(-c2cnn(C3CCNCC3)c2)cnc1N)c1c(Cl)ccc(F)c1Cl [crizotinib]
# Method in brief: as §1
# [1] = compound: C[C@H](C1=CC=C(C=C1)C(=O)NC2=C3C=CNC3=NC=C2)N
# Method in brief: as §1
# duvelisib = compound: C[C@H](Nc1ncnc2nc[nH]c12)c1cc2cccc(Cl)c2c(=O)n1-c1ccccc1 [duvelisib]
# Method in brief: as §1
# gandotinib = compound: Cc1cc(Nc2cc(CN3CCOCC3)c3nc(C)c(Cc4ccc(Cl)cc4F)n3n2)n[nH]1 [gandotinib]
# Method in brief: as §1
# tozasertib = compound: Cc1cc(Nc2cc(N3CCN(C)CC3)nc(Sc3ccc(NC(=O)C4CC4)cc3)n2)n[nH]1 [tozasertib]
# Method in brief: as §1
# doramapimod = compound: Cc1ccc(-n2nc(C(C)(C)C)cc2NC(=O)Nc2ccc(OCCN3CCOCC3)c3ccccc23)cc1 [doramapimod]
# Method in brief: as §1
# bafetinib = compound: Cc1ccc(NC(=O)c2ccc(CN3CC[C@H](N(C)C)C3)c(C(F)(F)F)c2)cc1Nc1nccc(-c2cncnc2)n1 [bafetinib]
# Method in brief: as §1
# [2] = compound: Cc1cccc(CC(=O)N2CCc3c2ccc(-c2cn(C)c4ncnc(N)c24)c3F)n1
# Method in brief: as §1
# nilotinib = compound: Cc1cn(-c2cc(NC(=O)c3ccc(C)c(Nc4nccc(-c5cccnc5)n4)c3)cc(C(F)(F)F)c2)cn1 [nilotinib]
# Method in brief: as §1
# [3] = compound: Cc1nc(Nc2n[nH]c3c2CN(C(=O)N[C@H](CN(C)C)c2ccccc2)C3(C)C)c2sccc2n1
# Method in brief: as §1
# dasatinib = compound: Cc1nc(Nc2ncc(C(=O)Nc3c(C)cccc3Cl)s2)cc(N2CCN(CCO)CC2)n1 [dasatinib]
# Method in brief: as §1
# [4] = compound: Cc1ncc(-c2ccnc(Nc3ccc(S(C)(=O)=O)cc3)n2)n1C(C)C
# Method in brief: as §1
# [5] = compound: Cn1cc(-c2ccc3c(c2)CCN3C(=O)Cc2cccc(C(F)(F)F)c2)c2c(N)ncnc21
# Method in brief: as §1
# quisinostat = compound: Cn1cc(CNCC2CCN(c3ncc(C(=O)NO)cn3)CC2)c2ccccc21 [quisinostat]
# Method in brief: as §1
# tipifarnib = compound: Cn1cncc1[C@@](N)(c1ccc(Cl)cc1)c1ccc2c(c1)c(-c1cccc(Cl)c1)cc(=O)n2C [tipifarnib]
# Method in brief: as §1
# [6] = compound: NC(=O)Nc1cc(-c2cccc(F)c2)sc1C(=O)N[C@H]1CCCNC1
# Method in brief: as §1
# [7] = compound: NC(=O)c1cnc(N[C@@H]2CCCC[C@@H]2N)nc1Nc1cccc(-n2nccn2)c1
# Method in brief: as §1
# [8] = compound: NC1(c2ccc(-c3nc4ccn5c(=O)[nH]nc5c4cc3-c3ccccc3)cc2)CCC1
# Method in brief: as §1
Target,log2 fold change (lapatinib),log2 fold change (pictilisib),log2 fold change (crizotinib),log2 fold change [1],log2 fold change (duvelisib),log2 fold change (gandotinib),log2 fold change (tozasertib),log2 fold change (doramapimod),log2 fold change (bafetinib),log2 fold change [2],log2 fold change (nilotinib),log2 fold change [3],log2 fold change (dasatinib),log2 fold change [4],log2 fold change [5],log2 fold change (quisinostat),log2 fold change (tipifarnib),log2 fold change [6],log2 fold change [7],log2 fold change [8]
BAIAP2 (UniProt Q9UQB8),inactive: 0.022,inactive: 0.015,inactive: 0.015,inactive: 0.062,inactive: -0.045,inactive: -0.099,inactive: -0.03,inactive: 0.185,inactive: 0.035,inactive: -0.063,inactive: -0.002,inactive: -0.008,inactive: 0.002,inactive: -0.005,inactive: -0.01,inactive: 0.003,inactive: -0.048,inactive: -0.019,inactive: 0.014,inactive: 0.007
BORCS5 (UniProt Q969J3),inactive: 0.015,inactive: 0.096,inactive: -0.002,inactive: 0.037,inactive: 0.037,inactive: -0.038,inactive: 0.007,inactive: -0.011,inactive: -0.042,inactive: -0.006,inactive: 0.064,inactive: -0.021,inactive: -0.025,inactive: 0.082,inactive: -0.003,inactive: -0.017,inactive: -0.061,inactive: -0.017,inactive: -0.029,inactive: -0.009
BARD1 (UniProt Q99728),inactive: -0.274,inactive: -0.004,inactive: -0.128,inactive: 0.083,inactive: 0.14,inactive: -0.193,inactive: 0.112,inactive: 0.09,inactive: -0.169,inactive: 0.146,inactive: 0.125,inactive: 0.005,inactive: -0.009,inactive: -0.112,inactive: -0.066,inactive: -0.078,inactive: 0.031,inactive: -0.095,inactive: -0.338,inactive: 0.083
BCL2L2 isoform 2 (UniProt Q92843),inactive: -0.028,inactive: 0.025,inactive: -0.002,inactive: 0.001,inactive: -0.02,inactive: 0.039,inactive: -0.017,inactive: 0.035,inactive: -0.064,inactive: 0.028,inactive: -0.015,inactive: -0.018,inactive: 0.013,inactive: 0.039,inactive: 0.017,inactive: -0.041,inactive: 0.049,inactive: -0.03,inactive: 0.003,inactive: 0.037
BTD isoform 3 (UniProt P43251),inactive: 0.029,inactive: 0.063,inactive: 0.035,inactive: -0.062,inactive: -0.006,inactive: 0.003,inactive: 0.057,inactive: -0.059,inactive: -0.044,inactive: 0.095,–,–,inactive: 0.121,–,inactive: 0.064,inactive: -0.003,–,inactive: 0.031,inactive: -0.016,inactive: 0.012
BCL10 (UniProt O95999),inactive: 0.013,inactive: -0.008,inactive: 0.055,inactive: -0.009,inactive: -0.09,inactive: 0.045,inactive: 0.03,inactive: -0.033,inactive: -0.033,inactive: 0.024,inactive: 0.001,inactive: 0.02,inactive: 0.077,inactive: 0.005,inactive: -0.021,inactive: 0.005,inactive: 0.012,inactive: -0.026,inactive: 0.038,inactive: 0.001
BCKDHA (UniProt P12694),inactive: 0.018,inactive: -0.024,inactive: 0.004,inactive: -0.001,inactive: 0.02,inactive: -0.013,inactive: 0.014,inactive: 0.023,inactive: 0.037,inactive: 0.02,inactive: 0.064,inactive: -0.007,inactive: -0.031,inactive: 0.019,inactive: -0.023,inactive: 0.077,inactive: 0.017,inactive: -0.042,inactive: 0.041,inactive: -0.006
BNIP3 (UniProt Q12983),inactive: -0.031,inactive: 0.049,inactive: -0.054,active: -0.371,inactive: -0.166,inactive: 0.107,inactive: -0.046,inactive: -0.016,inactive: 0.023,inactive: 0.14,inactive: 0.037,inactive: -0.077,inactive: 0.014,inactive: -0.002,inactive: -0.02,inactive: -0.219,inactive: 0.05,inactive: 0.061,inactive: -0.018,inactive: -0.007
BCL7C (UniProt Q8WUZ0),inactive: 0.041,inactive: 0,inactive: -0.18,inactive: -0.005,inactive: -0.103,inactive: 0.05,inactive: 0.086,inactive: -0.168,inactive: -0.073,inactive: 0.014,–,–,inactive: 0.034,–,inactive: -0.002,inactive: -0.044,–,inactive: 0.031,inactive: -0.03,inactive: -0.015
BET1L (UniProt Q9NYM9),inactive: 0.15,inactive: -0.112,inactive: 0.058,inactive: 0.044,inactive: 0.012,inactive: -0.045,inactive: -0.054,inactive: -0.134,inactive: -0.174,inactive: -0.067,inactive: 0.056,inactive: -0.055,inactive: 0.023,inactive: -0.012,inactive: 0.028,inactive: 0.146,inactive: 0.137,inactive: -0.073,inactive: -0.006,inactive: 0.026
BAZ1B (UniProt Q9UIG0),inactive: 0.029,inactive: -0.004,inactive: -0.026,inactive: -0.025,inactive: -0.016,inactive: -0.046,inactive: -0.04,inactive: 0.086,inactive: -0.009,inactive: 0.058,inactive: 0.063,inactive: -0.008,inactive: -0.084,inactive: 0.003,inactive: -0.022,inactive: -0.039,inactive: -0.002,inactive: 0.002,inactive: -0.003,inactive: 0.024
BPGM (UniProt P07738),inactive: 0.016,inactive: -0.012,inactive: 0.002,inactive: 0.038,inactive: -0.037,inactive: -0.015,inactive: 0.087,inactive: 0.006,inactive: 0.034,inactive: -0.096,inactive: 0.024,inactive: -0.003,inactive: 0.066,inactive: 0.048,inactive: -0.079,inactive: -0.006,inactive: 0.002,inactive: -0.042,inactive: 0.037,inactive: -0.025
BRCA1 isoform 7 (UniProt P38398),inactive: -0.152,inactive: -0.066,inactive: -0.119,inactive: 0.021,inactive: 0.003,inactive: -0.082,inactive: 0.012,inactive: 0.062,inactive: -0.016,inactive: 0.006,inactive: -0.11,inactive: 0.018,inactive: 0,inactive: 0.053,inactive: 0.014,inactive: -0.22,inactive: -0.086,inactive: 0.02,inactive: -0.086,inactive: 0.05
BLOC1S1 (UniProt P78537),inactive: 0.024,inactive: 0.033,inactive: 0.016,inactive: -0.008,inactive: 0.018,inactive: -0.035,inactive: 0.088,inactive: 0.033,inactive: -0.119,inactive: -0.03,inactive: 0.078,inactive: -0.028,inactive: 0.015,inactive: -0.11,inactive: -0.061,inactive: 0.06,inactive: 0.031,inactive: -0.047,inactive: -0.031,inactive: -0.007
BBC3 (UniProt Q9BXH1),inactive: -0.047,inactive: -0.022,inactive: -0.004,inactive: 0.146,inactive: 0.15,inactive: 0.01,inactive: 0.118,inactive: 0.053,inactive: -0.036,inactive: 0.039,–,–,inactive: 0.007,–,inactive: 0.005,inactive: 0.024,–,inactive: -0.078,inactive: 0.015,inactive: -0.158
BID isoform 2 (UniProt P55957),inactive: 0.061,inactive: 0.049,inactive: -0.001,inactive: -0.015,inactive: 0.063,inactive: -0.006,inactive: 0.031,inactive: -0.038,inactive: 0.037,inactive: -0.064,inactive: 0.008,inactive: -0.008,inactive: -0.003,inactive: 0.002,inactive: 0.017,inactive: -0.058,inactive: 0.065,inactive: -0.01,inactive: -0.052,inactive: -0.016
BRD4 (UniProt O60885),inactive: 0.044,inactive: 0.015,inactive: -0.03,inactive: -0.06,inactive: 0.013,inactive: 0.019,inactive: -0.031,inactive: 0.016,inactive: -0.024,inactive: -0.006,inactive: 0.034,inactive: -0.009,inactive: -0.018,inactive: 0.019,inactive: -0.001,inactive: -0.091,inactive: -0.019,inactive: 0.013,inactive: -0.051,inactive: -0.008

# Complete entries as entered above. Values in the order: log2 fold change (lapatinib)	log2 fold change (pictilisib)	log2 fold change (crizotinib)	log2 fold change [1]	log2 fold change (duvelisib)	log2 fold change (gandotinib)	log2 fold change (tozasertib)	log2 fold change (doramapimod)	log2 fold change (bafetinib)	log2 fold change [2]	log2 fold change (nilotinib)	log2 fold change [3]	log2 fold change (dasatinib)	log2 fold change [4]	log2 fold change [5]	log2 fold change (quisinostat)	log2 fold change (tipifarnib)	log2 fold change [6]	log2 fold change [7]	log2 fold change [8]
# BLOC1S1 (UniProt P78537) as listed: inactive: 0.024	inactive: 0.033	inactive: 0.016	inactive: -0.008	inactive: 0.018	inactive: -0.035	inactive: 0.088	inactive: 0.033	inactive: -0.119	inactive: -0.03	inactive: 0.078	inactive: -0.028	inactive: 0.015	inactive: -0.11	inactive: -0.061	inactive: 0.06	inactive: 0.031	inactive: -0.047	inactive: -0.031	inactive: -0.007
# BCL10 (UniProt O95999) as listed: inactive: 0.013	inactive: -0.008	inactive: 0.055	inactive: -0.009	inactive: -0.09	inactive: 0.045	inactive: 0.03	inactive: -0.033	inactive: -0.033	inactive: 0.024	inactive: 0.001	inactive: 0.02	inactive: 0.077	inactive: 0.005	inactive: -0.021	inactive: 0.005	inactive: 0.012	inactive: -0.026	inactive: 0.038	inactive: 0.001
